# Out of some 330,000 compounds screened, about 7,700 (2.3%) were called active. Inconclusive results, whose numbers are uncertain, are shown with a selection of clear calls. Calls follow the shape of the dose curve; as a rule, active = well fitted inhibition curve with a large enough effect; inconclusive = small, poorly fitted or top-dose-only effect, or effect the other way; inactive = flat fitted curve, though single readings scatter. Where the call is inconclusive, the potency comes from a doubtful curve fit.
# Test: qHTS screen for small molecules that inhibit ELG1-dependent DNA repair in human embryonic kidney (HEK293T) cells expressing luciferase-tagged ELG1; also: nearly all actives have a fitted effect of over 55% in size
# Details: HEK293T ELG1-luciferase reporter, luminescence, 16 h, DNA damage induced by 5-fluorouridine; activity change, negative = inhibition: at 46.1 µM (top of the series)
# In short: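 Quantitative HTS, concentration-response format. 2,000 cells/well co-treated with 5-fluorouridine and compound, 16 hr in 5% CO2 at 37 °C; ONE-Glo luminescence read after 30 min.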
# % is scaled to controls: 0 for no effect and ±100 for the full control effect; potency is read from the fitted curve at half-maximal effect.
SMILES,Potency,"activity change, negative = inhibition"
COc1cccc(OCC(=O)Nc2ccc(OC)c(OC)c2)c1,"inconclusive: 0.651 µM [inhibitor, single point]",–
Cc1ccc(C(=O)NCC(=O)N2CCCCCCC2)cc1,"inconclusive: 16.4 µM [activator, partial curve]",–
c1ccc(Nc2nc(N3CCCC3)nc(N3CCCC3)n2)cc1,"inconclusive: 18.4 µM [inhibitor, partial curve]",–
CCc1c(C)nc2c(C)cccc2c1SCCC#N,–,inactive: -2.97%
Cc1cccc(NC(=O)CN(c2ccc(C(C)C)cc2)S(=O)(=O)c2c(C)nn(C)c2C)n1,"inconclusive: 18.4 µM [inhibitor, partial curve]",–
O=C(CCN1C(=O)C2CCCCC2C1=O)Nc1cc([N+](=O)[O-])ccc1Cl (stereo not drawn),–,inactive: 0%
O=C(COc1cccc2ccccc12)Nc1cc(S(=O)(=O)N2CCOCC2)ccc1N1CCOCC1,"inconclusive: 29.1 µM [inhibitor, single point]",–
CCC1=NN(C(=O)Cc2ccc(OC)cc2)C(O)(C(F)(F)F)C1 (stereo not drawn),–,inactive: -5.06%
O=c1cc(N2CCCCC2)c2ccccc2o1,–,inactive: 11.1%
Cc1nc(NC(N)=S)sc1C(=O)Nc1ccccc1,–,inactive: 10.2%
O=c1[nH]c2ccccc2nc1Cc1ccccc1,–,inactive: -7.63%
S=c1[nH]nc(-c2ccccc2Br)n1Cc1ccccc1,–,inactive: -3.56%
COc1ccc(CNc2ncc(-c3ccccc3)n2C)cc1,"inconclusive: 22.4 µM [activator, single point]",–
O=C(OCc1ccccc1)c1cccc(-c2nnc(-c3ccccc3)o2)c1,"inconclusive: 18.4 µM [activator, partial curve]",–
CC(C)Oc1ccccc1OCCCCn1cnc2ccccc2c1=O,"inconclusive: 18.3 µM [inhibitor, single point]",–
CC(=O)Nc1ccc(S(=O)(=O)Oc2ccc3c(c2)C(C)=CC(C)(C)N3)cc1,"inconclusive: 23.1 µM [activator, single point]",–
C/C(=N\NC(=O)c1ccoc1C)c1ccc(Cl)s1,"inconclusive: 18.3 µM [activator, single point]",–
CC(C)(C)OC(=O)CNC(=O)c1[nH]cnc1C(=O)NCC(=O)OCc1ccccc1,"inconclusive: 10.3 µM [inhibitor, partial curve, poor fit]",–
CCN1/C(=C/c2ccc3cc(C)ccc3[n+]2CC)Sc2ccccc21,"inconclusive: 32.6 µM [inhibitor, single point]",–
N=c1c(C(=O)NCc2ccco2)cc2c(=O)n3ccccc3nc2n1C1CCCC1,–,inactive: -10.4%
c1csc(Cn2nnnc2CN2CCN(c3nc4ccccc4s3)CC2)c1,"inconclusive: 32.6 µM [inhibitor, single point]",–
Cc1noc(C)c1CSc1ccccc1C(=O)OC(C)C(N)=O (stereo not drawn),"inconclusive: 20.6 µM [activator, single point]",–
CC(=O)c1cc(NC(=O)c2ccc(C)cc2)c(=O)oc1/C=C/N(C)C,"inconclusive: 5.8 µM [activator, full curve]",–
CCCCCCCNC(=O)C1(CC2CC(c3cccc(Br)c3)=NO2)CCN(C(=O)Cc2ccc(F)cc2)CC1 (stereo not drawn),"inconclusive: 35.5 µM [inhibitor, single point]",–

SMILES,Potency,"activity change, negative = inhibition"
c1ccc2c(c1)[nH]c1c(NCC3CCCO3)ncnc12 (stereo not drawn),active: 14.6 µM,–
Cc1cccc(C(=O)NC2=NCCS2)c1,"inconclusive: 4.61 µM [activator, partial curve]",–
O=C1NC(=S)N/C1=C/c1ccc2c(c1)OCO2,–,inactive: -20.5%
Cc1ccc(Cl)cc1NC(=O)c1ccc(NC(=O)CCC(=O)O)cc1,–,inactive: -5.37%
O=C(Nc1ccc2c(c1)C(=O)OC2)c1ccc(Cl)cc1Cl,"inconclusive: 8.2 µM [activator, partial curve, poor fit]",–
c1ccc(Cn2c(CNc3nc4ccccc4n3CCN3CCOCC3)nc3ccccc32)cc1,"inconclusive: 25.1 µM [inhibitor, single point]",–
CC(C)CC(=O)Nc1ccc(C(=O)CN2C(=O)NC3(CCOc4ccccc43)C2=O)cc1 (stereo not drawn),–,inactive: 0.14%
O=C(Nc1ccc2oc(-c3ccccc3)nc2c1)c1ccco1,"inconclusive: 4.11 µM [activator, full curve]",–
O=C(COc1ccccc1)Nc1nccs1,"inconclusive: 7.31 µM [activator, partial curve]",–
CC1C/C(=C/c2cccs2)C(=O)/C(=C/c2cccs2)C1 (stereo not drawn),"inconclusive: 20.6 µM [activator, partial curve, poor fit]",–
Cc1cccc(OCC(=O)NC(=S)NNC(=O)c2ccncc2)c1,–,inactive: -5.81%
COc1ccc(NC(=O)c2cccc(N3C(=O)C4C5CCC(C5)C4C3=O)c2)cc1 (stereo not drawn),"inconclusive: 29.1 µM [inhibitor, single point]",–
O=C(CCN1CCC(c2cccs2)=N1)c1cccs1,"inconclusive: 18.3 µM [activator, single point]",–
Nc1nc(-c2ccccc2)c(-c2ccccc2)s1,–,inactive: 22.3%
COc1cc(OC)c(OC)cc1/C=C1\SC(N2CCCCC2)=NC1=O,"inconclusive: 18.3 µM [inhibitor, single point]",–
COc1ccc(N2CCN(CCCNC(=O)c3cc4sccc4n3C)CC2)cc1,"inconclusive: 29.1 µM [inhibitor, single point]",–
CC(CC(=O)Nc1ccc(F)c([N+](=O)[O-])c1)c1ccccc1 (stereo not drawn),–,inactive: -17.9%
COC(=O)c1c(NC(=O)C2CC2)sc2c1CCCC2,–,inactive: 2.13%
CCOCCCNC(=O)C(c1ccccc1)N(Cc1cccs1)C(=O)CNC(=O)c1ccccc1 (stereo not drawn),"inconclusive: 16.4 µM [inhibitor, single point]",–
Cn1c(N)c(C(=O)Nc2ccc(-c3ccccc3)cc2)sc1=S,–,inactive: -30.4%
COc1ccc(NC(=O)c2[nH]c(C)c(C(C)=O)c2C)cc1S(=O)(=O)N1CCOCC1,"inconclusive: 20.6 µM [activator, partial curve]",–
O=C(NCc1ccccc1)c1cccc2c1C(=O)c1ccc(/C=C/c3ccccc3)cc1S2(=O)=O,–,inactive: -15.9%
C=CCn1c(OCc2ccccc2)n[nH]c1=S,–,inactive: -0.297%
CCn1cc(C(=O)O)c(=O)c2cnc(N3CCN(C(=S)Nc4ccccc4Cl)CC3)nc21,active: 11.6 µM,–

# Three successive records already listed, quoted:
SMILES,Potency,"activity change, negative = inhibition"
Cn1c(N)c(C(=O)Nc2ccc(-c3ccccc3)cc2)sc1=S,–,inactive: -30.4%
COc1ccc(NC(=O)c2[nH]c(C)c(C(C)=O)c2C)cc1S(=O)(=O)N1CCOCC1,"inconclusive: 20.6 µM [activator, partial curve]",–
O=C(NCc1ccccc1)c1cccc2c1C(=O)c1ccc(/C=C/c3ccccc3)cc1S2(=O)=O,–,inactive: -15.9%

# Reference: PubChem BioAssay AID504467 (National Center for Advancing Translational Sciences (NCATS), 2011)
